Measurements: patent US20140249165A1, “PURINE DERIVATIVES FOR TREATMENT OF CYSTIC DISEASES” (Genzyme Corporation, priority 2006, published 2014)
Like-named read-outs stand apart in the source and are kept apart here.

Assays:
[1] = test system: cpk model of PKD
[2] = test system: jck mouse model of PKD
[3] = test system: MDCK cysts; assay: cells; conditions: Canis lupus familiaris, 96 h, read-out: IC50 of inhibition of cystic growth
[4] = test system: MDCK cysts; conditions: read-out: IC50 of inhibition of cystic growth; MDCK cysts in 3D collagen I gel, 96 hours incubation, Alamar Blue

## CC[C@H](CO)Nc1nc(NCc2ccccc2)c2ncn(C(C)C)c2n1 [Roscovitine, 6-benzylamino-2-(R)-[(1-ethyl-2-hydroxy)ethylamino]-9-isopropylpurine]
[1]; 100 mg/kg daily from day 7 till day 21
  PKD in cpk mice: reduction of PKD
[1]; cpk mice, 100 mg/kg IP daily, day 7 till day 21
  K/BW ratio: 19.25 ± 3.17 %
[2]; jck female, 150 mg/kg IP daily, continuous 5 W
  K/BW ratio: 3.49 ± 0.42 %
[2]; jck male, 50 mg/kg IP daily, continuous 5 W
  K/BW ratio: 6.55 ± 1.06 %
[2]; jck male, 150 mg/kg IP daily, continuous 5 W (Table 2)
  K/BW ratio: 4.17 ± 0.26 %
[2]; jck male, 150 mg/kg, daily dosing for 5 weeks (Table 2a)
  K/BW ratio: 4.23 ± 0.53 %
[2]; jck male, 150 mg/kg, pulse treatment 5 W (1/1): 1 week on, 1 week off for 5 weeks
  K/BW ratio: 4.56 ± 0.62 %
[2]; jck male, 150 mg/kg, pulse treatment 5 W (3/2): 3 weeks on, 2 weeks off
  K/BW ratio: 4.71 ± 0.69 %
[2]; jck mice, 50 and 150 mg/kg
  Kidney to body weight ratio and cystic volumes: reduction of the kidney to body weight ratio and cystic volumes in a dose dependent manner
[2]; jck/jck females
  PKD in jck/jck females: inhibited PKD
[3]
  IC50: ~20 µM

## CC[C@@H](CO)Nc1nc(NCc2ccccc2)c2ncn(C(C)C)c2n1 [S-Roscovitine]
[4]
  IC50: ~30 µM
